# The whole screen tested about 300,000 compounds, of which about 3,700 (1.2%) were called active. The inconclusive results got no clear call from the source; some entries with a clear call stand among them for comparison. Calls follow the shape of the full dose curve; tested in HEK293 cells. Potencies of inconclusive entries are doubtful fits and often do not repeat.
# Assay: qHTS for Inhibitors of binding or entry into cells for Lassa Virus; also: nearly all actives have a fitted effect of over 50% in size
# Settings: Lassa virus pseudotype entry inhibition, cell reporter; series mostly up to 37.9 µM
# Potency is read from the fitted curve at half-maximal effect.
row,Compound,Potency
1,COc1ccccc1CCN=C(N)NS(=O)(=O)c1cc(F)ccc1F,"inconclusive: 35.5 µM [activator, single point]"
2,S=C(NCCc1ccccc1)Nc1cccc2cnccc12,"inconclusive: 6.31 µM [inhibitor, full curve, poor fit]"
3,CN(C)c1ccc(C=C2C(=O)NC(=S)NC2=O)cc1,"inconclusive: 0.708 µM [inhibitor, single point]"
4,O=C(/C=C/c1ccccc1[N+](=O)[O-])NCc1ccc(Cl)cc1,inactive
5,CN(C)CCCN(C(=O)COc1ccc(Cl)cc1)c1nc2ccc(F)cc2s1,"inconclusive: 10 µM [activator, partial curve]"
6,CC1=C(C(=O)Nc2ccc3[nH]ncc3c2)C(c2ccc(Cl)c(Cl)c2)CC(=O)N1 (stereo unspecified),"inconclusive: 12.5 µM [activator, single point]"
7,Cc1ccc(NC(=O)c2nc(S(=O)(=O)Cc3ccccc3C)ncc2Cl)cc1C,"inconclusive: 35.5 µM [inhibitor, single point]"
8,O=C1NC(=O)N(c2ccc(Cl)cc2)C(=O)/C1=C/c1ccc2c(c1)CCN2Cc1ccccc1Cl,inactive
9,Cc1ccc(/C=C(\NC(=O)c2ccccc2)C(=O)NC2CCN(Cc3ccccc3)CC2)o1,"inconclusive: 1.26 µM [inhibitor, single point]"
10,CC(=O)c1ccccc1NC(=O)COC(=O)c1ccc2c(c1)nc(C)n2-c1ccccc1,inactive
11,COc1cc(O)ccc1C(=O)CCc1ccc(O)cc1,"inconclusive: 0.794 µM [inhibitor, full curve, poor fit]"
12,CCOC(=O)c1ccc(CNCc2ccccc2)cc1,"inconclusive: 6.51 µM [activator, full curve, poor fit]"
13,CCOC(=O)c1[nH]c2ccc(OC)cc2c1NC(=O)CN1CCc2ccccc2C1,"inconclusive: 23.1 µM [inhibitor, single point]"
14,CSc1nc2ccc(NC(=O)C3CCCO3)cc2s1 (stereo unspecified),"inconclusive: 2.24 µM [activator, partial curve, poor fit]"
15,Cc1ccc(S(=O)(=O)N2CCc3cc(C(=O)Nc4c(F)cccc4F)ccc32)cc1,"inconclusive: 10 µM [inhibitor, single point]"
16,O=C(NCC(c1ccco1)N1CCCC1)c1cn(-c2ccccc2)nc1-c1ccc(F)cc1 (stereo unspecified),"inconclusive: 20 µM [inhibitor, single point]"
17,Cc1cc2cc(C(c3nnnn3CC3CCCO3)N3CCCc4ccccc43)c(=O)[nH]c2cc1C (stereo unspecified),"inconclusive: 29.1 µM [inhibitor, single point]"
18,Cc1ccc(S(=O)(=O)C(CNC(=O)C(=O)NCc2ccccc2C)c2cccs2)cc1 (stereo unspecified),"inconclusive: 35.5 µM [inhibitor, partial curve, poor fit]"
19,Cc1ccc(-c2nc3ccccc3s2)cc1NC(=O)c1ccc2c(c1)OCO2,inactive
20,COc1ccc(CCNC(=O)C2CCN(S(=O)(=O)c3c(C)noc3/C=C/c3ccc(C)cc3)CC2)cc1OC,inactive
21,Cc1c([N+](=O)[O-])cc(C(=O)Nc2ccc3ncccc3c2)cc1[N+](=O)[O-],inactive

# Sorted by molar mass (ascending): part of the list above.
row,Compound,Potency
11,COc1cc(O)ccc1C(=O)CCc1ccc(O)cc1,"inconclusive: 0.794 µM [inhibitor, full curve, poor fit]"
3,CN(C)c1ccc(C=C2C(=O)NC(=S)NC2=O)cc1,"inconclusive: 0.708 µM [inhibitor, single point]"
5,CN(C)CCCN(C(=O)COc1ccc(Cl)cc1)c1nc2ccc(F)cc2s1,"inconclusive: 10 µM [activator, partial curve]"

# Next part:

row,Compound,Potency
1,Cc1ccc(NC(=O)CN(C)CC(=O)Nc2ccccc2-c2ccccc2)cc1,"inconclusive: 35.5 µM [inhibitor, partial curve, poor fit]"
2,COc1ccc2occ(C(=O)c3ccccc3)c2c1,"inconclusive: 35.5 µM [inhibitor, single point]"
3,COc1cc(C(=O)Nc2cccc3cccnc23)cc(OC)c1OC,"inconclusive: 15.8 µM [inhibitor, single point]"
4,CC(C)C[C@@H](CO)NS(=O)(=O)c1cc(Cl)ccc1F,"inconclusive: 35.3 µM [activator, single point]"
5,O=C(Nc1ccc(Br)cc1)c1ccc(F)c(S(=O)(=O)N2CCc3ccccc32)c1,"inconclusive: 12.6 µM [inhibitor, partial curve, poor fit]"
6,O=C(NCc1cccs1)C1CCN(C(=O)N2CCOc3ccc(Cl)cc32)CC1,"inconclusive: 3.55 µM [inhibitor, partial curve, poor fit]"
7,CC(=O)N1CCc2cc(CNC(=O)c3ccccc3Br)ccc21,inactive
8,Cc1ccc(CN2CCN(C3CCN(C(=O)Nc4ccc(C)cc4Cl)CC3)C(=O)C2=O)cc1,inactive
9,CC(=O)Nc1ccc(SCC(=O)N(C)CC(=O)Nc2ccccc2Cl)cc1,"inconclusive: 0.631 µM [inhibitor, single point]"
10,Nc1ccc(S(=O)(=O)O)cn1,"inconclusive: 3.98 µM [activator, full curve]"
11,O=C(/C(=C/O)N=Nc1ccccc1)c1cccs1,"inconclusive: 28.2 µM [inhibitor, single point]"
12,CNS(=O)(=O)c1cn(CC(=O)Nc2ccc(C(C)=O)cc2)cc1S(=O)(=O)NC,"inconclusive: 14.1 µM [activator, single point]"
13,O=C(O)c1ccc(Nc2cc(Cl)c3nonc3c2[N+](=O)[O-])cc1,inactive
14,COc1ccc(CNC(=O)c2ccc3c(=O)n4c(nc3c2)CCCCC4)cc1OC,"inconclusive: 5.62 µM [inhibitor, partial curve]"
15,CCOC(=O)N1CCN(C(=O)c2cnc(Nc3ccccc3OC)c3ccccc23)CC1,"inconclusive: 1.64 µM [activator, partial curve, poor fit]"
16,Cn1cccc1C(=O)C(=O)Nc1ccc(Cl)cc1,"inconclusive: 10 µM [inhibitor, partial curve, poor fit]"
17,CCNc1nc2c(c(=O)n(Cc3ccccc3)c(=O)n2C)n1Cc1ccccc1,"inconclusive: 35.5 µM [inhibitor, single point]"
18,O=c1nc(Nc2ccc(OCc3ccccc3)cc2)sc2ncccc12,"inconclusive: 3.55 µM [inhibitor, single point]"
19,COc1ccc(-n2nc(C(=O)NCC(=O)N3CCC(C)CC3)c3ccccc3c2=O)cc1Cl,"inconclusive: 6.31 µM [inhibitor, single point]"
20,O=C1c2ccccc2CC1Sc1nnc(-c2ccccn2)o1 (stereo unspecified),"inconclusive: 3.55 µM [activator, single point]"
